Measurements from US20050165104A1, “Biocidal agents and veterinary methods” (priority 2002, published 2005).
At least one structure is not confirmed: it was looked up by name or label, or the drawing left a doubt.

Assay: pH of the tested solution
Format: physicochemical
Settings: test solution 0.1M (extracts: 0.1M total components)

O=C(O)Cc1c[nH]c2ccccc12 [indoleacetic acid]
pH: 6
